# Assay results reported in the supplement of paper PMC10994270.
# This is one part of the list.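 How the source made its calls: active = probability of classifying as wild-type above 0.505; inactive = 0.505 or below.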 Many values rest on one well or one pass, so single values are uncertain.
# System: SORL1-/- neural progenitor cells (hiPSC WTSIi004-B derived)
# Test: probability of classification as wild-type phenotype (neural network, relative to DMSO-treated WT vs SORL1-/- controls) (fraction); higher = more similar to wild-type morphology (phenotypic rescue)
# Conditions: 1000 nM; SORL1-/- sub-clone: WC7; 24 h
row,Compound,probability
1,CCN1CCN(Cc2ccc(Nc3ncc(F)c(-c4cc(F)c5nc(C)n(C(C)C)c5c4)n3)nc2)CC1.CS(=O)(=O)O,active: 0.658
2,COc1cc2c(Oc3ccc4[nH]c(C)cc4c3F)ccnc2cc1OCC1(N)CC1 [Anlotinib],active: 0.621
3,COc1cc2c3cc1Oc1c(OC)c(OC)cc4c1[C@@H](Cc1ccc(O)c(c1)Oc1ccc(cc1)C[C@@H]3N(C)CC2)N(C)CC4 [Berbamine],active: 0.999
